Data from patent publication US20220220215A1.
No constants are given. Whether binding was seen depends on the method and setting. Binding can be weak; no strength is given.

B1: TPP-1246 CD137A-6GS-HSA2-6GS-PD138G7(G109D) (bispecific antibody)
chain: EVQLVESGGGLVQPGGSLRLSCAASGFTLSNYWMNWVRQAPGKGLEWVANINQDGSERYYVDSVKGRFTISRDNAKNSLYLQMNSLRAEDTAVYYCARGGEGYGVDHYGLDVSGQGTTVTVSSGGGGSGGGGSGGGGSGGGGSGGGGSGGGGSEVQLVESGGGLVKPGGSLRLSCAASGFTFSNYNMNWVRQAPGKGLEWVSSISSAGTHIYYADSVKGRFTISRDNAKNSLYLQMNSLRAEDTAVYYCARDPHSTGWYKDFDYWGQGTLVTVSSGGGGSGGGGSGGGGSGGGGSGGGGSGGGGSEVQLVESGGGVVRPGGSLRLSCAASGFTFDDYAMSWVRQAPGKGLEWVSGITWNGGSTGYADSVKDRFTISRDNAKNSLYLQMNSLRAEDTALYYCVRDKYSYAWSYDDFDIWGQGTMVTVSS
B2: TPP-1290 PD138G7(G109D)-6GS-CD137A-6GS-HSA2 (bispecific antibody)
chain: EVQLVESGGGVVRPGGSLRLSCAASGFTFDDYAMSWVRQAPGKGLEWVSGITWNGGSTGYADSVKDRFTISRDNAKNSLYLQMNSLRAEDTALYYCVRDKYSYAWSYDDFDIWGQGTMVTVSSGGGGSGGGGSGGGGSGGGGSGGGGSGGGGSEVQLVESGGGLVQPGGSLRLSCAASGFTLSNYWMNWVRQAPGKGLEWVANINQDGSERYYVDSVKGRFTISRDNAKNSLYLQMNSLRAEDTAVYYCARGGEGYGVDHYGLDVSGQGTTVTVSSGGGGSGGGGSGGGGSGGGGSGGGGSGGGGSEVQLVESGGGLVKPGGSLRLSCAASGFTFSNYNMNWVRQAPGKGLEWVSSISSAGTHIYYADSVKGRFTISRDNAKNSLYLQMNSLRAEDTAVYYCARDPHSTGWYKDFDYWGQGTLVTVSS
B3: TPP-1438 CD137A-6GS-HSA2-6GS-PD138G7(G109D)-6GS-PD138G7(G109D) (bispecific antibody)
chain: EVQLVESGGGLVQPGGSLRLSCAASGFTLSNYWMNWVRQAPGKGLEWVANINQDGSERYYVDSVKGRFTISRDNAKNSLYLQMNSLRAEDTAVYYCARGGEGYGVDHYGLDVSGQGTTVTVSSGGGGSGGGGSGGGGSGGGGSGGGGSGGGGSEVQLVESGGGLVKPGGSLRLSCAASGFTFSNYNMNWVRQAPGKGLEWVSSISSAGTHIYYADSVKGRFTISRDNAKNSLYLQMNSLRAEDTAVYYCARDPHSTGWYKDFDYWGQGTLVTVSSGGGGSGGGGSGGGGSGGGGSGGGGSGGGGSEVQLVESGGGVVRPGGSLRLSCAASGFTFDDYAMSWVRQAPGKGLEWVSGITWNGGSTGYADSVKDRFTISRDNAKNSLYLQMNSLRAEDTALYYCVRDKYSYAWSYDDFDIWGQGTMVTVSSGGGGSGGGGSGGGGSGGGGSGGGGSGGGGSEVQLVESGGGVVRPGGSLRLSCAASGFTFDDYAMSWVRQAPGKGLEWVSGITWNGGSTGYADSVKDRFTISRDNAKNSLYLQMNSLRAEDTALYYCVRDKYSYAWSYDDFDIWGQGTMVTVSS
B4: TPP-1439 PD138G7(G109D)-6GS-PD138G7(G109D)-6GS-CD137A-7-6GS-HSA2 (bispecific antibody)
chain: EVQLVESGGGVVRPGGSLRLSCAASGFTFDDYAMSWVRQAPGKGLEWVSGITWNGGSTGYADSVKDRFTISRDNAKNSLYLQMNSLRAEDTALYYCVRDKYSYAWSYDDFDIWGQGTMVTVSSGGGGSGGGGSGGGGSGGGGSGGGGSGGGGSEVQLVESGGGVVRPGGSLRLSCAASGFTFDDYAMSWVRQAPGKGLEWVSGITWNGGSTGYADSVKDRFTISRDNAKNSLYLQMNSLRAEDTALYYCVRDKYSYAWSYDDFDIWGQGTMVTVSSGGGGSGGGGSGGGGSGGGGSGGGGSGGGGSEVQLVESGGGLVQPGGSLRLSCAASGFTLSNYWMNWVRQAPGKGLEWVANINQDGSERYYVDSVKGRFTISRDNAKNSLYLQMNSLRAEDTAVYYCARGGEGYGVDHYGLDVSGQGTTVTVSSGGGGSGGGGSGGGGSGGGGSGGGGSGGGGSEVQLVESGGGLVKPGGSLRLSCAASGFTFSNYNMNWVRQAPGKGLEWVSSISSAGTHIYYADSVKGRFTISRDNAKNSLYLQMNSLRAEDTAVYYCARDPHSTGWYKDFDYWGQGTLVTVSS
B5: TPP-1409 CD137A-1GS-HSA2-1GS-PD138G7(G109D) (bispecific antibody)
chain: EVQLVESGGGLVQPGGSLRLSCAASGFTLSNYWMNWVRQAPGKGLEWVANINQDGSERYYVDSVKGRFTISRDNAKNSLYLQMNSLRAEDTAVYYCARGGEGYGVDHYGLDVSGQGTTVTVSSGGGGSEVQLVESGGGLVKPGGSLRLSCAASGFTFSNYNMNWVRQAPGKGLEWVSSISSAGTHIYYADSVKGRFTISRDNAKNSLYLQMNSLRAEDTAVYYCARDPHSTGWYKDFDYWGQGTLVTVSSGGGGSEVQLVESGGGVVRPGGSLRLSCAASGFTFDDYAMSWVRQAPGKGLEWVSGITWNGGSTGYADSVKDRFTISRDNAKNSLYLQMNSLRAEDTALYYCVRDKYSYAWSYDDFDIWGQGTMVTVSS
B6: TPP-1410 PD138G7(G109D)-1GS-CD137A-6GS-HSA2 (bispecific antibody)
chain: EVQLVESGGGVVRPGGSLRLSCAASGFTFDDYAMSWVRQAPGKGLEWVSGITWNGGSTGYADSVKDRFTISRDNAKNSLYLQMNSLRAEDTALYYCVRDKYSYAWSYDDFDIWGQGTMVTVSSGGGGSEVQLVESGGGLVQPGGSLRLSCAASGFTLSNYWMNWVRQAPGKGLEWVANINQDGSERYYVDSVKGRFTISRDNAKNSLYLQMNSLRAEDTAVYYCARGGEGYGVDHYGLDVSGQGTTVTVSSGGGGSGGGGSGGGGSGGGGSGGGGSGGGGSEVQLVESGGGLVKPGGSLRLSCAASGFTFSNYNMNWVRQAPGKGLEWVSSISSAGTHIYYADSVKGRFTISRDNAKNSLYLQMNSLRAEDTAVYYCARDPHSTGWYKDFDYWGQGTLVTVSS

The binders below were run against PD1 fused to a subunit of NanoLuc® luciferase, on cells (NanoBiT® assay) (human) (assay: NanoBiT cell based protein interaction assay).

| Binder | binding |
| --- | --- |
| B1 | binds |
| B2 | binds |
| B3 | binds |
| B4 | binds |
| B5 | binds |
| B6 | binds |

These binders were tested against CD137 fused to a subunit of NanoLuc® luciferase, on cells (NanoBiT® assay) (human) (assay: NanoBiT cell based protein interaction assay).

| Binder | binding |
| --- | --- |
| B1 | binds |
| B2 | binds |
| B3 | binds |
| B4 | binds |
| B5 | binds |
| B6 | binds |
